Data reported in article PMC7757026.
Results are given in words; binding and its absence hold for the method and conditions named. Binding seen in cells or lysates may run through a third protein. Some entries that bind do so weakly or less than the wild type. Sequences can lack the tags named with a protein.

Amino acid sequences for entries named in this document (tags omitted).
UniProt P10275: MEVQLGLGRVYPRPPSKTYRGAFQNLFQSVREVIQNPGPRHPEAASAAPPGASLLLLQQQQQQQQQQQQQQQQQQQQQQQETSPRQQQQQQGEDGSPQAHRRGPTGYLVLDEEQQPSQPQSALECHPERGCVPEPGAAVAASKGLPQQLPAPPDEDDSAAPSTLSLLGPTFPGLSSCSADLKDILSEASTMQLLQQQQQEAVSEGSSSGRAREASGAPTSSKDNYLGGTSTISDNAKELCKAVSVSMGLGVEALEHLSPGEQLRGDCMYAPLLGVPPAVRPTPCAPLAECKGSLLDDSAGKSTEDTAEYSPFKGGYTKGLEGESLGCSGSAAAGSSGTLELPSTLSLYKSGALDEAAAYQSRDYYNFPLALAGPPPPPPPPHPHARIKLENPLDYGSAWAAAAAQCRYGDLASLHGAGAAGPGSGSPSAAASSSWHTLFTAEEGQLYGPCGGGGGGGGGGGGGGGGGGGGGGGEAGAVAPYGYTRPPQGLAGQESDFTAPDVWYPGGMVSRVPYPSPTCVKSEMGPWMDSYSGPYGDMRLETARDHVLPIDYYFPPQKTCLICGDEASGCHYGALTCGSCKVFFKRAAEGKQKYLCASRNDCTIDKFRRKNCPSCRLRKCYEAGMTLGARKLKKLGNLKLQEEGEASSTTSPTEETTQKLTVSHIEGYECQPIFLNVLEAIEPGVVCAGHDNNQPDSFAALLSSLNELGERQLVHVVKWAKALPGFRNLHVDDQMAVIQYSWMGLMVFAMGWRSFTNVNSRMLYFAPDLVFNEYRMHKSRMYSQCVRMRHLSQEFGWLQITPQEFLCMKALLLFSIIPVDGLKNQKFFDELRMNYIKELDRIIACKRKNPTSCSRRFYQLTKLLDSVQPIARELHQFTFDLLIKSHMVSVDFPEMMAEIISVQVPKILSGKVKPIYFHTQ
UniProt Q03164: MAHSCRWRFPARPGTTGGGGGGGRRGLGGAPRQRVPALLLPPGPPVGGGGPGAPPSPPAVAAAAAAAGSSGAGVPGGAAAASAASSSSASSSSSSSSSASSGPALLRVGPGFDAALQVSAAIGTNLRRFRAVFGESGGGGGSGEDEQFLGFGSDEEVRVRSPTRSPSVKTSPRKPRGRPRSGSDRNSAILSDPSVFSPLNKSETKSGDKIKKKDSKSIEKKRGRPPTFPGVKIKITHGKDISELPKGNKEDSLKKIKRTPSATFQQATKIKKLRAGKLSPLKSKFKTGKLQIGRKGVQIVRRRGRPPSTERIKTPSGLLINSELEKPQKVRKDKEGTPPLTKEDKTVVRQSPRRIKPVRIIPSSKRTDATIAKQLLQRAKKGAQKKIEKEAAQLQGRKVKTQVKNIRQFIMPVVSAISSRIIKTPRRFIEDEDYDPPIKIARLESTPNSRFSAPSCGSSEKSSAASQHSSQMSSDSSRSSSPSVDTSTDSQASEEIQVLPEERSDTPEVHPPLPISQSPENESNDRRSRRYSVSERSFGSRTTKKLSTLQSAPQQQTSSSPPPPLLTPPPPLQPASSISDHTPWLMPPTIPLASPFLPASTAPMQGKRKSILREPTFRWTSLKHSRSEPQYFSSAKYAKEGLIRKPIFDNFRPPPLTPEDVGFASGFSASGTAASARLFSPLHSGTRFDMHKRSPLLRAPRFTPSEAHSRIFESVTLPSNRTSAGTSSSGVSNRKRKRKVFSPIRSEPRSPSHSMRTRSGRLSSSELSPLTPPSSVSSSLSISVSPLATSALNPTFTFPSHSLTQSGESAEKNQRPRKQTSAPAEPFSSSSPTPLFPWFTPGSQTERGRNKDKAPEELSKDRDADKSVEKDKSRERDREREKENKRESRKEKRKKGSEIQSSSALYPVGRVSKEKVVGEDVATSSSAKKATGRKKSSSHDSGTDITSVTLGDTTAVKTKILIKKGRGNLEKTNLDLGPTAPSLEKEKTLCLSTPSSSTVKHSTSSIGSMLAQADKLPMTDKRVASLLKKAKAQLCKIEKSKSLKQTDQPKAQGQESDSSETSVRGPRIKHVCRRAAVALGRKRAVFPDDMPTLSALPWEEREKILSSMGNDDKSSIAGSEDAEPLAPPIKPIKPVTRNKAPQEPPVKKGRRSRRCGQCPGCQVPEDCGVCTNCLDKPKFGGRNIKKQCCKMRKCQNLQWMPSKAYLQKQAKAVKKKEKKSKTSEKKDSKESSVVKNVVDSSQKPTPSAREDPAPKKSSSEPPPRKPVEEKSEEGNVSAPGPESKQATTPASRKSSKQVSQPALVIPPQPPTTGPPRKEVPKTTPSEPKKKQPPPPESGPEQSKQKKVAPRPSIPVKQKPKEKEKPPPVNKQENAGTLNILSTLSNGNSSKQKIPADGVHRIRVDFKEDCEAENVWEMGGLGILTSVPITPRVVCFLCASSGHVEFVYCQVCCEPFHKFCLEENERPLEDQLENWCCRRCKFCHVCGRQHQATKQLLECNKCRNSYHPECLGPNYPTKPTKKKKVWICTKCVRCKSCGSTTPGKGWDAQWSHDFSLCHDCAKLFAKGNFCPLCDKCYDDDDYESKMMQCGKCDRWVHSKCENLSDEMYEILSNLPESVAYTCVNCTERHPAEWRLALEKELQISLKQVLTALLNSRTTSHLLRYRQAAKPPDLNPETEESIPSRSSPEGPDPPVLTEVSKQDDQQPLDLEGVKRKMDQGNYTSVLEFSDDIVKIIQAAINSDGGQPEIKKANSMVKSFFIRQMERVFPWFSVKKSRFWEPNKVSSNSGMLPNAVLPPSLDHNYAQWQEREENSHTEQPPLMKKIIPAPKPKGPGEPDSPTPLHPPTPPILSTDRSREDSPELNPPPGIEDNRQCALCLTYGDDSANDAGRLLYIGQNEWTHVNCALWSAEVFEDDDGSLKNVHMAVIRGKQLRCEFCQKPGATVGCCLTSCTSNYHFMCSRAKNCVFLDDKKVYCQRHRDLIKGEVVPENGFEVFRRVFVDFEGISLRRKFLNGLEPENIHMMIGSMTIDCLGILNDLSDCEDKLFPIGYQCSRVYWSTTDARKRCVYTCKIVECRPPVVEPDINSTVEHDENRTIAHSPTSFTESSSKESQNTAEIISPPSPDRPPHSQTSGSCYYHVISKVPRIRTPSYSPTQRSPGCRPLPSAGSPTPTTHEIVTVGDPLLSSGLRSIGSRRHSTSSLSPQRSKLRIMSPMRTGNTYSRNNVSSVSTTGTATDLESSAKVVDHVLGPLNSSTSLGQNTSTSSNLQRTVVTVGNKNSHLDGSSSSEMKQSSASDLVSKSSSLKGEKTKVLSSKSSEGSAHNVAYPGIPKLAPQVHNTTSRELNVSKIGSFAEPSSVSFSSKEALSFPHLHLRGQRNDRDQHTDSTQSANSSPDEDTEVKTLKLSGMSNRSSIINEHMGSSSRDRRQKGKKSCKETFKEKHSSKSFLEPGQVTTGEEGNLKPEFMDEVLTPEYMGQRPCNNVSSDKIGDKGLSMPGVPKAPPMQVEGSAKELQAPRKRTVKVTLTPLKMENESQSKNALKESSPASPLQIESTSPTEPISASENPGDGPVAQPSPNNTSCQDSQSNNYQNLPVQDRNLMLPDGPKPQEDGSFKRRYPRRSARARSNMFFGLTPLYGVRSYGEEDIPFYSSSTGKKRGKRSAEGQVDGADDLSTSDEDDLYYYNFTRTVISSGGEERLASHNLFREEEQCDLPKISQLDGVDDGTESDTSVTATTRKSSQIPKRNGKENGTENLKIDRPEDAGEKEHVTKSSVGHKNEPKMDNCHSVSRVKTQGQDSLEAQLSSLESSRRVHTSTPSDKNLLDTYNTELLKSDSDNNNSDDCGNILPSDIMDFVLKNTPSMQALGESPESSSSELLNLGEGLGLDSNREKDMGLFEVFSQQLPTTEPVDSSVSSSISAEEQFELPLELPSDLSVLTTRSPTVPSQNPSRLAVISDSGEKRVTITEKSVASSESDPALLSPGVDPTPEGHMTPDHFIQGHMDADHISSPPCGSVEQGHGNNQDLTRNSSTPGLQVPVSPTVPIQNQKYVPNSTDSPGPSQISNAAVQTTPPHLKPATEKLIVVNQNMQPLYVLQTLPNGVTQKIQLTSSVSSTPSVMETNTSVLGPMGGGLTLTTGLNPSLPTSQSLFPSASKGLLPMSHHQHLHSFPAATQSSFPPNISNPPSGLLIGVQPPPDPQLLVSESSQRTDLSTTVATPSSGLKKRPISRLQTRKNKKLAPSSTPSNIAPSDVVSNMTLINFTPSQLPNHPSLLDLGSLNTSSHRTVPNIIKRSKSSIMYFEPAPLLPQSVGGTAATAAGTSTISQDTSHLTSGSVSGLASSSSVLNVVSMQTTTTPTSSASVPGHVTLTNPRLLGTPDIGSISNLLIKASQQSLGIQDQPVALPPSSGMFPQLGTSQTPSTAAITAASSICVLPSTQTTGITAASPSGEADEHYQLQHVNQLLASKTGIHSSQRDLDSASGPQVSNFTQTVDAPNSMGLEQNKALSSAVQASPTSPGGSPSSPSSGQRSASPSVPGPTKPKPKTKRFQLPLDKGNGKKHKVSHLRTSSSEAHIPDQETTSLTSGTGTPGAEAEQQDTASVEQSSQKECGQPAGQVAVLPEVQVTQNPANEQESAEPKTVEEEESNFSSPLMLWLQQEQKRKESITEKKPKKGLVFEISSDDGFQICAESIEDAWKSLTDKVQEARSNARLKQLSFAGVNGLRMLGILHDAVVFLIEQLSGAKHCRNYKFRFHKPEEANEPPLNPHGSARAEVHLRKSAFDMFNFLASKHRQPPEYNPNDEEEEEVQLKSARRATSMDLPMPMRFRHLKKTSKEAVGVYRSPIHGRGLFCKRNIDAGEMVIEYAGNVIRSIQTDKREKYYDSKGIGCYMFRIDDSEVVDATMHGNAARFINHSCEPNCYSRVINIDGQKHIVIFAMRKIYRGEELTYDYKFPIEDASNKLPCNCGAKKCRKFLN

T1: endogenous PRPF6 (pre-mRNA processing factor 6) of CWR22Rv1 cells (human (endogenous in CWR22Rv1)) (UniProt O94906)
T1 sequence: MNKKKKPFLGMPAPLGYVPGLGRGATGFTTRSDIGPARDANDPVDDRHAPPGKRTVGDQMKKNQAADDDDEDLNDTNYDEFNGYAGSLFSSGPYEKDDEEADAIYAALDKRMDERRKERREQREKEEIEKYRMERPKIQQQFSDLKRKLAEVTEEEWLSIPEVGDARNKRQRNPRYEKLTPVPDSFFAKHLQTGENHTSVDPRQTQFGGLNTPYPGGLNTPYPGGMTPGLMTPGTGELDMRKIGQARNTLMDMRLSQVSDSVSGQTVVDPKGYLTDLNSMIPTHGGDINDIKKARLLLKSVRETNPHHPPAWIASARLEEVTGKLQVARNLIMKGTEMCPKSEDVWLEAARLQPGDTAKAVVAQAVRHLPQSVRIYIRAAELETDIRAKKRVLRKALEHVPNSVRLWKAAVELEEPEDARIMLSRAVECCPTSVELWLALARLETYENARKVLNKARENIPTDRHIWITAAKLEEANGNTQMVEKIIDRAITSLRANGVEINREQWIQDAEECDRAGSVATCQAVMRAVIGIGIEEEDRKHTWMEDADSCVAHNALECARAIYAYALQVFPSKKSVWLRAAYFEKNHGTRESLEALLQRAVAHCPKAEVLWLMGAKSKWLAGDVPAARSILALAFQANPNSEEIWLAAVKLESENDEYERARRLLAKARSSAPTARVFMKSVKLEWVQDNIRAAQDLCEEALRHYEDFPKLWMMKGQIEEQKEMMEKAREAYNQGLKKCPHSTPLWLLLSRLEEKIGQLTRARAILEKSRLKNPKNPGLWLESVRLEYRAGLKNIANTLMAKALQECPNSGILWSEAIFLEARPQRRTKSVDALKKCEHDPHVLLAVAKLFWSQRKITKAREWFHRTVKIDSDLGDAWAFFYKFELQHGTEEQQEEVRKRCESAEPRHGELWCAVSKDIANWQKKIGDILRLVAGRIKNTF

B1: Myc-tagged PRPF6 (pre-mRNA processing factor 6) (protein, UniProt O94906 1-941)
chain: MNKKKKPFLGMPAPLGYVPGLGRGATGFTTRSDIGPARDANDPVDDRHAPPGKRTVGDQMKKNQAADDDDEDLNDTNYDEFNGYAGSLFSSGPYEKDDEEADAIYAALDKRMDERRKERREQREKEEIEKYRMERPKIQQQFSDLKRKLAEVTEEEWLSIPEVGDARNKRQRNPRYEKLTPVPDSFFAKHLQTGENHTSVDPRQTQFGGLNTPYPGGLNTPYPGGMTPGLMTPGTGELDMRKIGQARNTLMDMRLSQVSDSVSGQTVVDPKGYLTDLNSMIPTHGGDINDIKKARLLLKSVRETNPHHPPAWIASARLEEVTGKLQVARNLIMKGTEMCPKSEDVWLEAARLQPGDTAKAVVAQAVRHLPQSVRIYIRAAELETDIRAKKRVLRKALEHVPNSVRLWKAAVELEEPEDARIMLSRAVECCPTSVELWLALARLETYENARKVLNKARENIPTDRHIWITAAKLEEANGNTQMVEKIIDRAITSLRANGVEINREQWIQDAEECDRAGSVATCQAVMRAVIGIGIEEEDRKHTWMEDADSCVAHNALECARAIYAYALQVFPSKKSVWLRAAYFEKNHGTRESLEALLQRAVAHCPKAEVLWLMGAKSKWLAGDVPAARSILALAFQANPNSEEIWLAAVKLESENDEYERARRLLAKARSSAPTARVFMKSVKLEWVQDNIRAAQDLCEEALRHYEDFPKLWMMKGQIEEQKEMMEKAREAYNQGLKKCPHSTPLWLLLSRLEEKIGQLTRARAILEKSRLKNPKNPGLWLESVRLEYRAGLKNIANTLMAKALQECPNSGILWSEAIFLEARPQRRTKSVDALKKCEHDPHVLLAVAKLFWSQRKITKAREWFHRTVKIDSDLGDAWAFFYKFELQHGTEEQQEEVRKRCESAEPRHGELWCAVSKDIANWQKKIGDILRLVAGRIKNTF
B2: endogenous JMJD1A (histone demethylase jumonji domain containing 1A) of CWR22Rv1 cells (enzyme, UniProt Q9Y4C1 1-1321)
chain: MVLTLGESWPVLVGRRFLSLSAADGSDGSHDSWDVERVAEWPWLSGTIRAVSHTDVTKKDLKVCVEFDGESWRKRRWIEVYSLLRRAFLVEHNLVLAERKSPEISERIVQWPAITYKPLLDKAGLGSITSVRFLGDQQRVFLSKDLLKPIQDVNSLRLSLTDNQIVSKEFQALIVKHLDESHLLKGDKNLVGSEVKIYSLDPSTQWFSATVINGNPASKTLQVNCEEIPALKIVDPSLIHVEVVHDNLVTCGNSARIGAVKRKSSENNGTLVSKQAKSCSEASPSMCPVQSVPTTVFKEILLGCTAATPPSKDPRQQSTPQAANSPPNLGAKIPQGCHKQSLPEEISSCLNTKSEALRTKPDVCKAGLLSKSSQIGTGDLKILTEPKGSCTQPKTNTDQENRLESVPQALTGLPKECLPTKASSKAELEIANPPELQKHLEHAPSPSDVSNAPEVKAGVNSDSPNNCSGKKVEPSALACRSQNLKESSVKVDNESCCSRSNNKIQNAPSRKSVLTDPAKLKKLQQSGEAFVQDDSCVNIVAQLPKCRECRLDSLRKDKEQQKDSPVFCRFFHFRRLQFNKHGVLRVEGFLTPNKYDNEAIGLWLPLTKNVVGIDLDTAKYILANIGDHFCQMVISEKEAMSTIEPHRQVAWKRAVKGVREMCDVCDTTIFNLHWVCPRCGFGVCVDCYRMKRKNCQQGAAYKTFSWLKCVKSQIHEPENLMPTQIIPGKALYDVGDIVHSVRAKWGIKANCPCSNRQFKLFSKPASKEDLKQTSLAGEKPTLGAVLQQNPSVLEPAAVGGEAASKPAGSMKPACPASTSPLNWLADLTSGNVNKENKEKQPTMPILKNEIKCLPPLPPLSKSSTVLHTFNSTILTPVSNNNSGFLRNLLNSSTGKTENGLKNTPKILDDIFASLVQNKTTSDLSKRPQGLTIKPSILGFDTPHYWLCDNRLLCLQDPNNKSNWNVFRECWKQGQPVMVSGVHHKLNSELWKPESFRKEFGEQEVDLVNCRTNEIITGATVGDFWDGFEDVPNRLKNEKEPMVLKLKDWPPGEDFRDMMPSRFDDLMANIPLPEYTRRDGKLNLASRLPNYFVRPDLGPKMYNAYGLITPEDRKYGTTNLHLDVSDAANVMVYVGIPKGQCEQEEEVLKTIQDGDSDELTIKRFIEGKEKPGALWHIYAAKDTEKIREFLKKVSEEQGQENPADHDPIHDQSWYLDRSLRKRLHQEYGVQGWAIVQFLGDVVFIPAGAPHQVHNLYSCIKVAEDFVSPEHVKHCFWLTQEFRYLSQTHTNHEDKLQVKNVIYHAVKDAVAMLKASESSFGKP

Key:
[1] = molecular target: T1, endogenous PRPF6 (pre-mRNA processing factor 6) of CWR22Rv1 cells (human (endogenous in CWR22Rv1)); assay: co-IP; endogenous proteins; CWR22Rv1 cells treated with 10^-8 M DHT or ethanol for 24 hrs (in Figure 4E infected with shPRPF6 or shCtrl); whole cell lysates immunoprecipitated with normal IgG, anti-AR or anti-PRPF6 antibody, western blot
[2] = molecular target: AR full length (AR-FL), exogenously expressed in HEK293 cells (UniProt P10275); assay: co-IP; HEK293 cells co-transfected with AR-FL and PRPF6 plasmids, DHT (10^-8 M) or ethanol for 24 hrs; whole cell lysates immunoprecipitated with anti-AR antibody, western blot
[3] = molecular target: AR overexpressed from an AR expression plasmid in CWR22Rv1 cells (UniProt P10275); assay: co-IP; CWR22Rv1 cells infected with shPRPF6 or shCtrl and transfected with AR expression plasmid, 10^-8 M DHT or ethanol for 24 hrs; lysates immunoprecipitated with normal IgG or anti-AR antibody, western blot

| Molecule | binding [1] | binding [2] | binding [3] |
| --- | --- | --- | --- |
| endogenous mixed-lineage leukemia 1 (MLL1) of CWR22Rv1 cells (from UniProt Q03164 1-3969) (enzyme) | no binding | – | – |
| B1 | – | binds | – |
| B2 | binds | – | binds |
